Laboratory results from patent EP1752538A1.
These are yes or no findings as the source states them, for the method shown. Some binding calls cover weakened binding; strength is not graded here.

Sequences of proteins named here, by UniProt entry; tags and fusion partners are left off. Residues count along the entry.
UniProt P03952, residues 20-638: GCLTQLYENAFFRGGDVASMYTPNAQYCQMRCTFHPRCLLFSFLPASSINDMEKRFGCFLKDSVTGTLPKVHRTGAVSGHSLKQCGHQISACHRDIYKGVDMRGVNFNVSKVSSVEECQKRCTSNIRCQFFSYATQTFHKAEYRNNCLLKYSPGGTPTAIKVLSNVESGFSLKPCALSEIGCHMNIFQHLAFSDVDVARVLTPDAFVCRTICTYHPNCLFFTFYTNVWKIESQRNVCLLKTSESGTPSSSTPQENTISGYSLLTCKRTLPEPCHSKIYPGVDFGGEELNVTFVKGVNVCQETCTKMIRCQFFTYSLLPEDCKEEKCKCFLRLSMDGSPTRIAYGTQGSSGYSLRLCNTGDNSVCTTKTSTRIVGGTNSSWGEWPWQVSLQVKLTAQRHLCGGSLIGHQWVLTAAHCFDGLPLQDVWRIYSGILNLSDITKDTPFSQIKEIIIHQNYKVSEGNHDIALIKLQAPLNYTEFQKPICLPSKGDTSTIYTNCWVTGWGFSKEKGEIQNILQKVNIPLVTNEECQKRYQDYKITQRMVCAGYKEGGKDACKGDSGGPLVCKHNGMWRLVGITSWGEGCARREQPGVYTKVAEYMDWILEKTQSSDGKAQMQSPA
UniProt P00760, residues 24-246: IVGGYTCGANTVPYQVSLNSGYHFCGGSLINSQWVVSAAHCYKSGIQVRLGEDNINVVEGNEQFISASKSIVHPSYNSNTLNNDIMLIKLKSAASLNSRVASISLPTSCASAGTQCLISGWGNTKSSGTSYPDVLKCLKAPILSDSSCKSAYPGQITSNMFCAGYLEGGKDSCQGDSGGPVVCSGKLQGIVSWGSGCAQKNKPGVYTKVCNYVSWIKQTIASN

Key:
[1] = target: human plasma kallikrein (human) (UniProt P03952); assay: kallikrein inhibition assay of column fractions, Pro-Phe-Arg-AMC substrate
[2] = target: bovine trypsin (type III) (bovine) (UniProt P00760); assay: trypsin inhibition assay of column fractions, GPK-AMC substrate

binding [1]: binds | binding [2]: binds
B1: native human placental bikunin isolated from human placenta (protein)
chain: ADRERSIHDFCLVSKVVGRCRASMPRWWYNVTDGSCQLFVYGGCDGNSNNYLTKEECLKKCATVTENATGDLATSRNAADSSVPSAPRRQDSEDHSSDMFNYEEYCTANAVTGPCRASFPRWYFDVERNSCNNFIYGGCRGNKNSYRSEEACMLRCFRQQENPPLPLGSKVVVLAGAVS
modifications: asparagine 30 silent in sequencing, likely glycosylated
